Data taken from paper PMC12113857.
No signal at the amounts used counts as a negative. For some of these results: Where a protein sequence is shown, tags need not be part of it. The exact form of at least one protein or probe is not confirmed. For some of these results: The comparison behind a weaker result is the experiment's own reference, which may not be listed here.

What follows are sequences tested against MprA, phosphorylated with acetylphosphate (Corynebacterium glutamicum ATCC 13032) (UniProt H7C6D1) (assay: EMSA). Conditions: acetylphosphate, shift at 4-fold molar excess; Buffer P: 50 mM Tris-HCl pH 7.5, 50 mM KCl, 10 mM MgCl2, 0.5 mM EDTA, 10% glycerol; 30 min at 20 C; DNA 25-107 nM, protein 0-64-fold molar excess; 6% native PAGE; recombinant protein; protein details: C-terminal His6.

Sequence | binding result
AATATTCTAAGAAACAGTTCAAGTTTTGCT (double strand) [cg0793 -43 to -14 (label 6)] | binds
ATGAGCTAAGAAAACACTTTAAATATTCTA (double strand) [cg0793 -64 to -35 (label 5)] | binds

Same assay, conditions: acetylphosphate; Buffer P: 50 mM Tris-HCl pH 7.5, 50 mM KCl, 10 mM MgCl2, 0.5 mM EDTA, 10% glycerol; 30 min at 20 C; DNA 25-107 nM, protein 0-64-fold molar excess; 6% native PAGE; recombinant protein; protein details: C-terminal His6; probe letters rebuilt from the primers and the genome

Sequence | binding result
ACCAGTCCACGTCGTTTACACAGGTTAACCACGGTGTCGATGATCGATTGCTGAGCCACGTCGGATGCTCTCCTCCACGTCGAATGAAAAAATAACCGTCCCTTTTAGGACATACCCAACCAATCCTAGCCCAACTAACGATGTTGCTTCCGCTGACCCCGTCATTTTGCGGTCTTCGCGATGTAAACTAGTTCTAATAACTATTTTTTCATTTCCCTCATAAAAGGTTTATATAGAAGGTAAAATAGCAAGCGTGCTAGATCCATTCCAGACCTAGCCTAAGGACGGAAGGACTTCCCC (double strand) [znr promoter] | binds
AGAGGATCCGATCGAGAAGTCGCGCCGGGATCCAGACGATGTGAACAAGGCGCTGGCGGCGGCGGATATGTATGTGTTGATGAATCAGCCGGACACAGCGCTCGCGCACCTTGCAGCACTATTGCCAAAACCGGAGGCTGCCCGGCGGATCGTGGAGTTGCTGAACTTGTTTGATCCGCTGGACCTGGTCGCATTGGAAATCAGGGCGCAGGTGGGGAATGCAATGAGCTAAGAAAACACTTTAAATATTCTAAGAAACAGTTCAAGTTTTGCTGTAGTTTAGATATGACAAGGCAATGACACAAGGAGACAA (double strand) [cg0793 promoter] | binds
ATCGTGGTCTGATGCAGCACCTGGTGAGGTGGCTGAGCCGGTGATTGAAAAGATTGCACAAGGTTTACGTGAGCGCGGAATCACCGTGGAACAAGGACGATTCGGCGCAATGATGAAGGTCACATCGGTTAACGAAGGCCCCTTCACCGTTTTGGTCGAGTGCTAGCCAGTCAATCCTAAGAGCTTGAAACGCCCCAATGTGGGGGTGTTAAGAACTCCATAAAAGCGCTTGGGAACTTTTTGTGGAAGCAGTCCGTTGAACCTCTTGAACCGCGAATTTAGGAGGCCAGTT (double strand) [sigB promoter] | binds
CGGTTTTTTCCGAGTCTCGCTGATGCGGCGTCGTTGCTGCACGATGTTCTCCCTGATGATATTGGTGCGGCTGAGACTATATGAAACAACTGAGAAGCCTAGTGCACTTCTGGGGATAATGGTACCTATGTGACTAAAGTTTCGTAGGGTGTGTCGCAAGTTGTTAAGAGCCTGTGAGAACGACAAAGGTATCTGGGTGTGGATATGCCCTGCTAACTGGAGAAACTTGGCCCGATCGGGTGTCTGAAATTTCGGCAACGCCGAATGTAAGTTAGTGTCGAATGCATGACGGAATCGAAA (double strand) [csp promoter] | binds
CTTACATTTTCCCTGCCACCCCTACGGGGGCTTTCATTTGACCAGCACCGATGGTGATTTTATGGTGTAGGACACCATCCGTTCTTTTTCAGGGGAATTTCGGTGAGAACCCGAAGCTGACCCGCAACCGTATTATGCAATCGCTTTCACCAGGTATTGCATTAAGCCGGATCACCTGAATAAGAAATGAGTGGCTCCAAACCGTCGAGGATTACGGTTCTGAAGCCCGTATTGAAGCGCAGTAATGTGTGCCTTAAAGCGGGGTCAGAACATTTCTCCAATTCATTTTAAGGACATGTTTTC (double strand) [cg0625 promoter] | binds
GATTTGATTATGAACCCTGTGGCTGGGGCGTCACTCTAAGTAGTCTGAACACTTCCTGTGAGCTCTTTAGTGGTTTAATCATCGACATTTTCGAACCCGCTGCGAATGGGTTCCCCTGGCAAATCAATAGTGATTCTCGTTCCGCCATCATCTGATTCACCCACAACGAGTTGGCCACCATGCCGATTCACAACCTGATTCACGATGGCAAGACCTAATCCCGATCCCGGCATGGAACGGGAGCTGACGGCGCGATAGAACCGTTCCAAAACTAATCCTCGTTCTTTTTCAGCAATTCCAGGCCCT (double strand) [htrA promoter] | binds
GGAGACAGACCTTAGCAACTAATCTGTTAAACCCCTGGCAACACAACGATGTATGTTAAGAAATTTCTTCTACAACCTTTTTTATAGCTCTGGTTGGAGGAAAGCTTCCTCGAAATTCTTGAGCGCAAATTTGGTTTTCCCGGCGCGGATTTTGCGCTGACGGTCGGTCAAAGAAGGGTCCTCGAGGTTGAAAAATCCCGTGTCGAAACGGTTGGCGCCCCGAGGATAGGTCTGCTTGCGGAGCCCTTCGACCAGTGTGGTGCAGTAGTCCATGATTCTGTCGAATTCTGCTGGGTCGTT (double strand) [bla promoter] | binds
TAATCGCGATGGCACCAGTGGAGCCGTTGCCATTGGTGGTGGCAGCCAAAGTGGTTAGCAGCTGGCCAGTCATTTCATCCGGGGCGGGGAGACCGAACTCGGCGGCGTCTTCACGAGCGCGCGCTACAGCAGCGTCGGTTTCAGTAGTGGACTCGACATAAGTGCGAAGATACTCGAAGGCGTTACTCACGCGTTATAGTCTAGAGCGAGCAGGCGAGATGTGAAGTACCTACACGCATTAAGTGCAAATGAATTCACAATTGCCAGAAGATGCACAGGATGTAATCTAGATTTCCCAAGTTCAGTGGGGCAAA (double strand) [sigE promoter] | binds
TGTTGCGACTCACCTCTTTTGTGTCTTTCGAGAGATTCTTTTAATGCTTGCGATGTGGACTTTGCTGGTGCTGGCCTGTGCACTGGATCGTCCTGGCCGTGATATTTCACTTCAAAAACTCTGGTGCAATCCGCACACAACCACGCGAATTCTGTTTGCTCATCGGGGAAAAGAACTTCTCCCGCGCAGTATGGGCAGTACAGAGGGTGGTTGCGGTTGGGATTGGGTTTCCTCCGAAGACTCACACCAAATCTTCCTCAGCGGCCCGCTGGACCCAATCGCGGAAGTGCTCGTCCTCGTGGCGCTGTTCCTTGAAGTGGGTAACAACGC (double strand) [cysD promoter] | no binding

These sequences were tested on T1, MprA, unphosphorylated (Corynebacterium glutamicum ATCC 13032) (assay: EMSA). Conditions: no acetylphosphate; Buffer P: 50 mM Tris-HCl pH 7.5, 50 mM KCl, 10 mM MgCl2, 0.5 mM EDTA, 10% glycerol; 30 min at 20 C; DNA 25-107 nM, protein 0-64-fold molar excess; 6% native PAGE; recombinant protein; residues 1-232; protein details: C-terminal His6; probe letters rebuilt from the primers and the genome.
T1 sequence (looked up): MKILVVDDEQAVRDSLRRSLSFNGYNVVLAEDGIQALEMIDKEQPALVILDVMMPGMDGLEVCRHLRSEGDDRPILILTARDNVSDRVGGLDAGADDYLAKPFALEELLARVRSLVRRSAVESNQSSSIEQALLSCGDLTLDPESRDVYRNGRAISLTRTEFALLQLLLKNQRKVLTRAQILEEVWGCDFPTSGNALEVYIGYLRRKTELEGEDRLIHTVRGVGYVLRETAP

Sequence | binding result
AGAGGATCCGATCGAGAAGTCGCGCCGGGATCCAGACGATGTGAACAAGGCGCTGGCGGCGGCGGATATGTATGTGTTGATGAATCAGCCGGACACAGCGCTCGCGCACCTTGCAGCACTATTGCCAAAACCGGAGGCTGCCCGGCGGATCGTGGAGTTGCTGAACTTGTTTGATCCGCTGGACCTGGTCGCATTGGAAATCAGGGCGCAGGTGGGGAATGCAATGAGCTAAGAAAACACTTTAAATATTCTAAGAAACAGTTCAAGTTTTGCTGTAGTTTAGATATGACAAGGCAATGACACAAGGAGACAA (double strand) [cg0793 promoter] | binds more weakly
TGTTGCGACTCACCTCTTTTGTGTCTTTCGAGAGATTCTTTTAATGCTTGCGATGTGGACTTTGCTGGTGCTGGCCTGTGCACTGGATCGTCCTGGCCGTGATATTTCACTTCAAAAACTCTGGTGCAATCCGCACACAACCACGCGAATTCTGTTTGCTCATCGGGGAAAAGAACTTCTCCCGCGCAGTATGGGCAGTACAGAGGGTGGTTGCGGTTGGGATTGGGTTTCCTCCGAAGACTCACACCAAATCTTCCTCAGCGGCCCGCTGGACCCAATCGCGGAAGTGCTCGTCCTCGTGGCGCTGTTCCTTGAAGTGGGTAACAACGC (double strand) [cysD promoter] | no binding
